Data as given in PubChem BioAssay AID743454 (Peter MacCallum Cancer Centre, 2014).

- Aim: 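Search for knock-downs that restore vorinostat killing in resistant colon cancer cells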 (primary screen)
- Cell system: human HCT116-VR colon cancer cells, selected for vorinostat resistance
- Reagent: siRNA pool against human genes, 40 nM siRNA pool
- Timing: vorinostat for 24 h, read-out about 72 h after transfection
- Conditions: vorinostat at 2.5 µM final
- Measurement: 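Two measures, CellTiter-Fluor viability and luminescent caspase 3/7 activity, each as fold change against same-plate mock wells, mean of duplicates, then screen-wide robust z-score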
- Reading the numbers: viability robust z-score: higher = more viable cells than screen typical; caspase robust z-score: higher = more caspase 3/7 activity than screen typical
- Rule for the call: 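Hits are knock-downs in viability class RV1/RV2 or caspase class CA1/CA2, excluding ones that killed cells in the no-drug cell-count arm; hits then retested with single siRNAs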
Shown is an unselected part of about 18,000 reagents. Over the whole deposit, 450 (2.5%) were called active. 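Single biological run; no consistent viability z cut-off exists, so the class columns, not z-scores, define the calls.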

CYBB gave viability hit class no change; caspase hit class no change; viability robust z-score -1.73; caspase robust z-score 0.39; inactive.
Against BMP10 the deposit lists viability hit class no change; caspase hit class no change; viability robust z-score 0.22; caspase robust z-score 0.72; inactive.
For ZNF772 the deposit lists viability hit class no change; caspase hit class no change; viability robust z-score -0.87; caspase robust z-score -0.2; inactive.
For ZNF227 the deposit lists viability hit class no change; caspase hit class no change; viability robust z-score 1.98; caspase robust z-score -0.68; inactive.
Knock-down of CD28 resulted in: viability hit class no change; caspase hit class no change; viability robust z-score 0.72; caspase robust z-score -0.62; inactive.
Against ZBTB5, the values are viability hit class no change; caspase hit class no change; viability robust z-score 0.32; caspase robust z-score 0.43; inactive.
Knock-down of ZSCAN26 gave: viability hit class no change; caspase hit class no change; viability robust z-score -1.64; caspase robust z-score -0.52; inactive.
Knock-down of CRIPTO resulted in: viability hit class no change; caspase hit class no change; viability robust z-score -0.51; caspase robust z-score -0.59; inactive.
Against NKX2-2 the deposit lists viability hit class no change; caspase hit class no change; viability robust z-score -1.38; caspase robust z-score 1.82; inactive.
For TRIM31, the entry reads viability hit class no change; caspase hit class no change; viability robust z-score -4.29; caspase robust z-score 7.19; inactive.
After knock-down of STAM2 the results were viability hit class no change; caspase hit class no change; viability robust z-score 0.34; caspase robust z-score -1.04; inactive.
LIPE scored viability hit class no change; caspase hit class no change; viability robust z-score 0.03; caspase robust z-score 1.12; inactive.
With knock-down of RANBP1, the record shows viability hit class no change; caspase hit class no change; viability robust z-score -0.34; caspase robust z-score -0.92; inactive.
For SMTNL2, the values are viability hit class no change; caspase hit class no change; viability robust z-score 0.26; caspase robust z-score -0.54; inactive.
Knock-down of GMDS resulted in: viability hit class no change; caspase hit class no change; viability robust z-score 2.13; caspase robust z-score -0.39; inactive.
Knock-down of C10orf62 came out at: viability hit class no change; caspase hit class no change; viability robust z-score -0.02; caspase robust z-score 0.84; inactive.
Against EMX1 the deposit lists viability hit class no change; caspase hit class no change; viability robust z-score 0.07; caspase robust z-score -0.59; inactive.
CDC42SE1 showed viability hit class no change; caspase hit class no change; viability robust z-score -0.82; caspase robust z-score 0.39; inactive.
TIE1 gave viability hit class no change; caspase hit class no change; viability robust z-score 0.09; caspase robust z-score -0.33; inactive.
Against CNTNAP5, the entry reads viability hit class no change; caspase hit class no change; viability robust z-score 0.3; caspase robust z-score 0.57; inactive.
With knock-down of ISL2, the screen gave viability hit class no change; caspase hit class no change; viability robust z-score -1.27; caspase robust z-score 2.52; inactive.

As entered above:
For “viability hit class”, ZSCAN26 is entered as no change
CD28, call: inactive
Entry for TRIM31 in “viability robust z-score”: -4.29
